According to article PMC7431833:
No constants are given. Whether binding was seen depends on the method and setting. Binding seen in cells or lysates may run through a third protein. Here binding means that the protein was enriched with, or labelled near, the bait; the list need not be complete. No binding means not detected with the bait. Tags and fused reporters may be left off the sequences shown.

By UniProt entry, the sequences of proteins in these tests, tags left out. Residues count along the entry.
UniProt P56817, residues 46-501: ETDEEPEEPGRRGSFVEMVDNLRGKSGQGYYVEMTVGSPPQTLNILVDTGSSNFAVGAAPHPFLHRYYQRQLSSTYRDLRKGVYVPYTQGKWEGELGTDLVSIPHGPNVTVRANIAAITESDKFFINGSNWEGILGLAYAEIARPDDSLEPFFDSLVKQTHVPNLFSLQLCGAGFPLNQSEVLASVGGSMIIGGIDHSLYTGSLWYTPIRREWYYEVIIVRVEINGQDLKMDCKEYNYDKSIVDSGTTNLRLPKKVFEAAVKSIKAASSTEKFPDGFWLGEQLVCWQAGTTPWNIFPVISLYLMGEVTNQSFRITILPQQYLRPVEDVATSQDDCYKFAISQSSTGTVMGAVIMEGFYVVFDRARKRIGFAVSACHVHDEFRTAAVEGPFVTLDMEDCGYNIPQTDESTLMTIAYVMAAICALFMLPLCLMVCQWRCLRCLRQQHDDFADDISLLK

Target: T1, Flag-SIRT2 (Sirtuin 2) (UniProt Q8IXJ6)
T1 sequence: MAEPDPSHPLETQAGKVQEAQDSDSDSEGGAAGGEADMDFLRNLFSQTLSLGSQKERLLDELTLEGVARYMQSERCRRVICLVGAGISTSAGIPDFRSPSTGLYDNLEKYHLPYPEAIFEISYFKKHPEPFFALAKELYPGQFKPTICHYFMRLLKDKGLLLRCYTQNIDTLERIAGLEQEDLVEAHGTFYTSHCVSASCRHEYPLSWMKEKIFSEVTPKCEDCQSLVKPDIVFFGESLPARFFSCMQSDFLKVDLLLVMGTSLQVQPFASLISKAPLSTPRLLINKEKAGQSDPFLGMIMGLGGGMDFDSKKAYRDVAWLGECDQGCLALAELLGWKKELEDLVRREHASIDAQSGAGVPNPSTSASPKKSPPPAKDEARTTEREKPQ
Experiment: affinity purification with mass spectrometry; whole-cell lysates of SY5Y cells transfected with Flag-SIRT2 or vector, IPed by Flag-conjugated beads, eluted with 3× Flag peptide, trypsin digest, MS (Q Exactive), search against human UniProt Swiss-Prot

Substance: BACE1 (β‐secretase 1), endogenous (from UniProt P56817 46-501) (enzyme)
- binding: no binding
